Results: patent publication USRE39350
The exact form of at least one protein or probe is not confirmed.

Tested on: His-tagged RB47 (Chlamydomonas reinhardtii)
Test: binding assay
Details: similar binding characteristics to recombinant precursor; method not stated; purified recombinant protein; protein details: N-terminal His tag (pET19-D), mature form; label: radiolabeled

## CGUCCUAUUUUAAUACUCCGAAGGAGGCAGUUGGCAGGCAACUGCCACUGACGUCCCGUAAGGGUAAGGGGACGUCCACUGGCGUCCCGUAAGGGGAAGGGGACGUAGGUACAUAAAUGUGCUAGGUAACUAACGUUUGAUUUUUUGUGGUAUAAUAUAUGUACCAUGCUUUUAAUAGAAGCUUGAAUUUAUAAAUUAAAAUAUUUUUACAAUAUUUUACGGAGAAAUUAAAACUUUAAAAAAAUUAACAU [psbA 5' UTR RNA]
  binding result: binds
